For some of these results: Expression grades refer to the transcript from which the peptide derives; gene names, where given, were looked up from the sequence.
Experiments:
Parameters in all cases: species or system human
[1] = test system: source genes of selected peptides; assay: Expression profiling of source genes by in-house RNAseq, tumor vs normal tissues (target coverage); conditions: for Target coverage, over-expression of source gene, AML: AML (N = 7); for Target coverage, over-expression of source gene, AML / Target coverage, over-expression of source gene, BRCA / Target coverage, over-expression of source gene, CLL / Target coverage, over-expression of source gene, CRC / Target coverage, over-expression of source gene, GB / Target coverage, over-expression of source gene, HCC / Target coverage, over-expression of source gene, OC / Target coverage, over-expression of source gene, OSCAR / Target coverage, over-expression of source gene, PC / Target coverage, over-expression of source gene, RCC / Target coverage, over-expression of source gene, SCLC / Target coverage, over-expression of source gene, pNSCLC: share of tumors with more than 1.5-fold higher expression than highest relevant normal tissue, in-house RNASeq; for Target coverage, over-expression of source gene, BRCA: BRCA (N = 10); for Target coverage, over-expression of source gene, CLL: CLL (N = 10); for Target coverage, over-expression of source gene, CRC: CRC (N = 20); for Target coverage, over-expression of source gene, GB: GB (N = 24); for Target coverage, over-expression of source gene, HCC: HCC (N = 15); for Target coverage, over-expression of source gene, OC: OC (N = 12); for Target coverage, over-expression of source gene, OSCAR: OSCAR (N = 11); for Target coverage, over-expression of source gene, PC: PC (N = 26); for Target coverage, over-expression of source gene, RCC: RCC (N = 10); for Target coverage, over-expression of source gene, SCLC: SCLC (N = 10); for Target coverage for source genes of selected peptides, GBC_CCC (N = 10): gallbladder adenocarcinoma and cholangiocarcinoma; for Target coverage for source genes of selected peptides, GBC_CCC (N = 10) / Target coverage for source genes of selected peptides, GC (N = 11) / Target coverage for source genes of selected peptides, HNSCC (N = 10) / Target coverage for source genes of selected peptides, MEL (N = 10) / Target coverage for source genes of selected peptides, NHL (N = 10) / Target coverage for source genes of selected peptides, PCA (n = 10) / Target coverage for source genes of selected peptides, UBC (N = 10) / Target coverage for source genes of selected peptides, UTC (N = 10): share of tumors with more than 1.5-fold higher expression than the highest-expressing relevant normal tissue, in-house RNAseq; for Target coverage for source genes of selected peptides, GC (N = 11): gastric cancer; for Target coverage for source genes of selected peptides, HNSCC (N = 10): head and neck small cell carcinoma; for Target coverage for source genes of selected peptides, MEL (N = 10): melanoma; for Target coverage for source genes of selected peptides, NHL (N = 10): non-Hodgkin lymphoma; for Target coverage, over-expression of source gene, pNSCLC: pNSCLC (N = 11); for Target coverage for source genes of selected peptides, PCA (n = 10): prostate cancer and benign prostate hyperplasia; for Target coverage for source genes of selected peptides, UBC (N = 10): urinary bladder cancer; for Target coverage for source genes of selected peptides, UTC (N = 10): uterine cancer
[2] = test system: source genes of selected peptides; assay: Target coverage of source genes in tumor entities based on TCGA Research Network data; conditions: over-expressed = more than 2-fold above the highest 75% percentile of normal organs; for Target coverage, over-expression category of source gene, BLCA (N = 408): Bladder urothelial carcinoma; for Target coverage, over-expression category of source gene, CESC (N = 307): Cervical squamous cell carcinoma and endocervical adenocarcinoma; for Target coverage, over-expression category of source gene, HNSC (N = 521): Head and neck squamous cell carcinoma; for Target coverage, over-expression category of source gene, DLBC (N = 48): Lymphoid neoplasm diffuse large B-cell lymphoma; for Target coverage, over-expression category of source gene, MESO (N = 87): Mesothelioma
[3] = test system: HLA-A*24 molecules of primary tumors; assay: Identification and relative LC-MS quantitation of HLA-A*24 tumor-associated peptides presented on tissue samples (XPRESIDENT presentation profiles); conditions: for ENTITIES: Table 9A: selected HLA-A*24-binding tumor-associated peptides, cancer entities on which the peptide was found presented

Substance	Target coverage, over-expression of source gene, AML [1]	Target coverage, over-expression of source gene, BRCA [1]	Target coverage, over-expression of source gene, CLL [1]	Target coverage, over-expression of source gene, CRC [1]	Target coverage, over-expression of source gene, GB [1]	Target coverage, over-expression of source gene, HCC [1]	Target coverage, over-expression of source gene, OC [1]	Target coverage, over-expression of source gene, OSCAR [1]	Target coverage, over-expression of source gene, PC [1]	Target coverage, over-expression of source gene, RCC [1]	Target coverage, over-expression of source gene, SCLC [1]	Target coverage for source genes of selected peptides, GBC_CCC (N = 10) [1]	Target coverage for source genes of selected peptides, GC (N = 11) [1]	Target coverage for source genes of selected peptides, HNSCC (N = 10) [1]	Target coverage for source genes of selected peptides, MEL (N = 10) [1]	Target coverage for source genes of selected peptides, NHL (N = 10) [1]	Target coverage, over-expression of source gene, pNSCLC [1]	Target coverage for source genes of selected peptides, PCA (n = 10) [1]	Target coverage for source genes of selected peptides, UBC (N = 10) [1]	Target coverage for source genes of selected peptides, UTC (N = 10) [1]	further results
344: peptide found in BUB1 (gene looked up) (EYNSDLHQF; listed as Homo sapiens) [compound 344]	I (<19% over-expression = I)	I (<19% over-expression = I)	I (<19% over-expression = I)	I (<19% over-expression = I)	I (<19% over-expression = I)	I (<19% over-expression = I)	I (<19% over-expression = I)	I (<19% over-expression = I)	I (<19% over-expression = I)	I (<19% over-expression = I)	II (20-49% = II)	I (<19% over-expression = I)	I (<19% over-expression = I)	I (<19% over-expression = I)	I (<19% over-expression = I)	II (20-49% = II)	I (<19% over-expression = I)	I (<19% over-expression = I)	I (<19% over-expression = I)	I (<19% over-expression = I)	Target coverage, over-expression category of source gene, BLCA (N = 408) [2]: B (>=20% of tumors above the cutoff, but <50%); Target coverage, over-expression category of source gene, CESC (N = 307) [2]: B (>=20% of tumors above the cutoff, but <50%); Target coverage, over-expression category of source gene, HNSC (N = 521) [2]: B (>=20% of tumors above the cutoff, but <50%); Target coverage, over-expression category of source gene, DLBC (N = 48) [2]: A (>=50% of tumors above the cutoff); Target coverage, over-expression category of source gene, MESO (N = 87) [2]: C (>=5% of tumors above the cutoff, but <20%); ENTITIES [3]: GB, RCC, HCC, NSCLC, GC; Peptide Presentation on cancer entities ([3]; Table 9B: selected HLA-A*24 peptides, presentation on additional cancer entities): PCA
345: peptide found in BUB1 (gene looked up) (EYNSDLHQFF; listed as Homo sapiens) [compound 345]	I (<19% over-expression = I)	I (<19% over-expression = I)	I (<19% over-expression = I)	I (<19% over-expression = I)	I (<19% over-expression = I)	I (<19% over-expression = I)	I (<19% over-expression = I)	I (<19% over-expression = I)	I (<19% over-expression = I)	I (<19% over-expression = I)	II (20-49% = II)	I (<19% over-expression = I)	I (<19% over-expression = I)	I (<19% over-expression = I)	I (<19% over-expression = I)	II (20-49% = II)	I (<19% over-expression = I)	I (<19% over-expression = I)	I (<19% over-expression = I)	I (<19% over-expression = I)	Target coverage, over-expression category of source gene, BLCA (N = 408) [2]: B (>=20% of tumors above the cutoff, but <50%); Target coverage, over-expression category of source gene, CESC (N = 307) [2]: B (>=20% of tumors above the cutoff, but <50%); Target coverage, over-expression category of source gene, HNSC (N = 521) [2]: B (>=20% of tumors above the cutoff, but <50%); Target coverage, over-expression category of source gene, DLBC (N = 48) [2]: A (>=50% of tumors above the cutoff); Target coverage, over-expression category of source gene, MESO (N = 87) [2]: C (>=5% of tumors above the cutoff, but <20%); ENTITIES [3]: GB, NSCLC
348: peptide found in FANCD2 (gene looked up) (IYLEHTESI; listed as Homo sapiens) [compound 348]	I (<19% over-expression = I)	I (<19% over-expression = I)	II (20-49% = II)	I (<19% over-expression = I)	I (<19% over-expression = I)	I (<19% over-expression = I)	I (<19% over-expression = I)	I (<19% over-expression = I)	I (<19% over-expression = I)	I (<19% over-expression = I)	I (<19% over-expression = I)	I (<19% over-expression = I)	I (<19% over-expression = I)	I (<19% over-expression = I)	I (<19% over-expression = I)	I (<19% over-expression = I)	I (<19% over-expression = I)	I (<19% over-expression = I)	I (<19% over-expression = I)	I (<19% over-expression = I)	Target coverage, over-expression category of source gene, BLCA (N = 408) [2]: B (>=20% of tumors above the cutoff, but <50%); Target coverage, over-expression category of source gene, CESC (N = 307) [2]: A (>=50% of tumors above the cutoff); Target coverage, over-expression category of source gene, HNSC (N = 521) [2]: C (>=5% of tumors above the cutoff, but <20%); Target coverage, over-expression category of source gene, DLBC (N = 48) [2]: A (>=50% of tumors above the cutoff); Target coverage, over-expression category of source gene, MESO (N = 87) [2]: C (>=5% of tumors above the cutoff, but <20%); ENTITIES [3]: GC, HCC, NSCLC

From patent US10159726B2, “Peptides, combination of peptides and scaffolds for use in immunotherapeutic treatment of various cancers” (Immatics Biotechnologies GmbH, priority 2015, dated 2018)
